Data reported in patent US9873709B2 (priority 2013, dated 2018).

Tested on: JAK1-dependent STAT6 phosphorylation downstream of IL-13 stimulation in TF-1 human erythroleukemia cells
Assay: cells
Settings: TF-1, read-out: IL-13-pSTAT6 IC50

CN1CCC(N(C)C(=O)c2ccc(Nc3nc4c(C5=CCN(C(=O)C6CCC6)CC5)cccn4n3)cc2)CC1 [Example 2-282, 4-[[8-[1-(cyclobutanecarbonyl)-3,6-dihydro-2H-pyridin-4-yl]-[1,2,4]triazolo[1,5-a]pyridin-2-yl]amino]-N-methyl-N-(1-methyl-4-piperidyl)benzamide]
IC50: 46.4 nM
